Test results published in PubChem BioAssay AID493014 (National Center for Advancing Translational Sciences (NCATS), 2011).
Some of the results follow. The main result of the screen is listed elsewhere. These columns were measured beside it and carry no call. Compounds called inactive in the main read-out are mostly missing here. Words in brackets tell the shape of the fitted curve; partial curves, single points and poor fits give uncertain potencies.

Assay: qHTS Assay to Find Inhibitors of Chronic Active B-Cell Receptor Signaling
Details: ABC-DLBCL IkBa-CBG/CBR reporter, luminescence ratio (green luciferase fused to IkBa over red control in TMD8 lymphoma cells), 4 h
Summary of the method: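 Compounds up to 46 uM were incubated four hours with TMD8 cells whose green CBG68 luciferase is fused to IkappaBalpha; red CBR luminescence normalised the signal, and concentration-effect curves were fitted to fusion, red and ratio data.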

[1] = measured here: CBR red luminescence, cell number
[2] = measured here: IkBa-CBG green luminescence

Row | SMILES | AC50 [1] | AC50 [2]
1 | Cc1ccc(C(O)(c2ccccc2)c2ccccc2C(C)N(C)C)c(C)c1 (configuration not stated) | 10 µM [falling, partial curve] | –
2 | COC(=O)CNc1cccc(C(F)(F)F)c1 | 3.16 µM [falling, full curve, poor fit] | –
3 | CC(CN(C)C)CN1c2ccccc2Sc2ccccc21 (configuration not stated) | 20.6 µM [falling, single point] | –
4 | CC(=O)/C(N=Nc1ccc(SC(F)F)cc1)=C(\C)O | 1.12 µM [rising, full curve, poor fit] | –
5 | COC(=O)c1ccccc1NC(=O)NCc1ccco1 | 29.1 µM [falling, single point] | –
6 | CCOC(=O)CN=C(NS(=O)(=O)c1ccc(Cl)cc1)c1ccccc1 | 17.8 µM [rising, partial curve, poor fit] | –
7 | CC(=O)c1c(N2CCCC2)nc(=S)n(-c2ccccc2)c1C | 1.16 µM [falling, partial curve, poor fit] | –
8 | O=C(Nc1ccc2c(c1)oc1ccccc12)N1CCOCC1 | 35.5 µM [falling, single point] | –
9 | Cc1cc(Cl)ccc1OCc1nnc2n1CCCCC2 | 6.31 µM [rising, single point] | –
10 | CCc1ccc(C2c3[nH]c4ccccc4c3CCN2C(=O)CN2CCN(CC)CC2)cc1 (configuration not stated) | 12.6 µM [falling, single point] | –
11 | CSc1cnn(Cc2ccccc2)c(=O)c1SCc1ccccc1 | – | 29.1 µM [falling, single point]
12 | CCOC(=O)Cc1csc(NC(=O)c2cc3c(s2)CCCC3)n1 | 8.2 µM [falling, partial curve, poor fit] | –
13 | O=C(O)/C=C/C(=O)NNC(=O)c1cc(-c2ccccc2)n[nH]1 | 35.5 µM [falling, single point] | –
14 | CCOC(=O)C1CCN(S(=O)(=O)c2cc3c4c(c2)CC(=O)N4CCC3)CC1 | 1.26 µM [rising, full curve, poor fit] | –
15 | CCN(CC)S(=O)(=O)c1ccc(NN=C2CCN(C)CC2)c([N+](=O)[O-])c1 | 11.2 µM [falling, single point] | –
16 | O=C1C(c2cc(=O)c3ccccc3[nH]2)=C(O)c2ccccc21 | 1.46 µM [falling, full curve] | –
17 | C=CCn1c(-c2csc3c2CCC(C)C3)n[nH]c1=S (configuration not stated) | 29.1 µM [rising, single point] | 29.1 µM [falling, single point]
18 | N/C(=N\c1nc2ccccc2o1)NC(=O)c1ccccc1Br | 0.251 µM [falling, full curve, poor fit] | –
19 | CCOC(=O)c1c(C)c(C(=O)Nc2ccc3c(c2)OCO3)c(C)n1C | 0.112 µM [rising, full curve, poor fit] | –
20 | O=C(COC(=O)c1ccc(Cl)c(S(=O)(=O)N2CCCC2)c1)NCc1ccccc1 | 9.2 µM [rising, partial curve] | –
21 | S=C(NCc1ccccc1Cl)Nc1ccccc1Cl | 35.5 µM [falling, single point] | –
22 | Cc1nn(-c2ccc(Cl)cc2)c(=O)c2ccccc12 | 35.5 µM [falling, single point] | –

Row | SMILES | AC50 [1] | AC50 [2]
23 | CC(C)CN1C(=O)C(=O)N(CC(=O)c2ccc3c(c2)CCCC3)C1=O | 6.51 µM [rising, partial curve, poor fit] | –
24 | Cc1ccccc1Nc1sc(C(=O)c2ccccc2)c(N)c1C(=O)NCc1ccc(Cl)cc1 | 7.08 µM [falling, partial curve, poor fit] | –
25 | CSc1ccc(CN2CCN(S(=O)(=O)Cc3ccccc3)CC2)cc1 | 25.1 µM [falling, single point] | –
26 | O=C(CSCC(=O)Nc1ccc2ccccc2c1)NCc1ccccc1 | 12.6 µM [falling, single point] | –
27 | CCCCN(C(=O)Cn1ncc(Cl)c(Cl)c1=O)c1c(N)n(CC(C)C)c(=O)[nH]c1=O | 35.5 µM [falling, single point] | –
28 | COc1ccc(N2CC(C(=O)NCc3n[nH]c(=O)c4ccccc34)CC2=O)cc1 (configuration not stated) | 7.31 µM [rising, partial curve] | –
29 | O=C(c1cccnc1)N(c1cc2sc(=O)oc2c2ccccc12)S(=O)(=O)c1ccccc1 | 11.6 µM [falling, partial curve] | –
30 | O=C(COC(=O)c1cccc(-n2cnnn2)c1)c1ccc(F)cc1 | 7.31 µM [falling, partial curve] | –
31 | O=C(Nc1nc(-c2ccccc2)cs1)c1cccc([N+](=O)[O-])c1 | 17.8 µM [falling, single point] | –
32 | CCN1CCN(C(=O)c2cn(CC)c3ccc(S(=O)(=O)N(C)C)cc3c2=O)CC1 | 29.1 µM [rising, single point] | –
33 | CCOC(=O)c1cnc2c(-c3ccccc3)cnn2c1C | 0.447 µM [falling, full curve, poor fit] | –
34 | O=C(NC1CCCCC1)C(=S)NC1CCCCC1 | 2.82 µM [rising, full curve, poor fit] | –
35 | COc1ccc(C2CC(c3ccccc3)=NN2S(=O)(=O)c2ccccc2)c(OC)c1 (configuration not stated) | 1.3 µM [rising, full curve, poor fit] | –
36 | CN1CCC(Oc2ccc(Sc3ccccc3)cc2)CC1 | 16.4 µM [falling, single point] | –
37 | Cc1ccccc1-c1nc2sc3c(c2c(=O)o1)CCC3 | 2.31 µM [falling, full curve, poor fit] | –
38 | Fc1ccc(/C=C\c2nccc3c2[nH]c2ccccc23)cc1 | 11.2 µM [falling, single point] | –
39 | COC(=O)C1=C(C)Nc2ncnn2C1c1ccccn1 (configuration not stated) | 0.146 µM [falling, full curve] | –
40 | O=c1oc2ccccc2c(NC2CCCCC2)c1NS(=O)(=O)c1ccc(Br)cc1 | 7.94 µM [falling, partial curve] | –
41 | CCOc1cc(/C=C2/SC(=S)N(Cc3ccccc3)C2=O)ccc1O | 11.2 µM [rising, partial curve, poor fit] | –
42 | CNC(=S)N(C)/N=C1/C(=O)N(Cc2c(Cl)cccc2Cl)c2ccccc21 | 16.4 µM [rising, partial curve] | –
43 | C=CCOn1c(=O)c(-c2cccs2)[n+]([O-])c2ccccc21 | 0.291 µM [falling, full curve] | –
44 | C[C@H](CO)N1C[C@H](C)[C@H](CN(C)Cc2ccncc2)Oc2ccc(NC(=O)Nc3ccc(C(F)(F)F)cc3)cc2CC1=O | – | 29.1 µM [falling, single point]

Row | SMILES | AC50 [1] | AC50 [2]
45 | CSC1=N/C(=C\c2ccc(C)s2)C(=O)S1 | 2.91 µM [rising, full curve, poor fit] | –
46 | CC(C)C(=O)N1CCN(c2ccccc2N)CC1 | 10 µM [falling, partial curve, poor fit] | –
47 | Cc1ccc2oc(-c3cccc(NC(=S)NC(=O)/C=C/c4ccco4)c3)nc2c1 | 10 µM [rising, partial curve, poor fit] | –
48 | CCOc1ccccc1NC(=O)c1cccc(N2C(=O)CCC2=O)c1 | 10 µM [falling, partial curve, poor fit] | –
49 | Cc1nc(C(F)(F)F)ccc1C(=O)NN1CCOCC1 | 22.4 µM [rising, partial curve, poor fit] | –
50 | C/C(=C\C(=O)c1cccnc1)Nc1ccc(O)cc1 | 8.2 µM [falling, single point] | –
51 | O=c1[nH]c(Cc2ccccc2)nc2c1oc1ccccc12 | 5.8 µM [rising, single point] | –
52 | COC(=O)Nc1ccc2c(c1)ncn2C1CCCCC1 | 1 µM [rising, full curve, poor fit] | –
53 | FC(F)(F)c1ccc(N/N=C/c2cccnc2)nc1 | 11.2 µM [falling, single point] | –
54 | C#C[C@]1(O)CC[C@H]2[C@@H]3CCC4=CC(=O)CC[C@@H]4[C@H]3CC[C@@]21CC | 5.62 µM [rising, single point] | –
55 | COc1nc(N=C(N)N)nc2c(C)cccc12 | 0.355 µM [falling, full curve, poor fit] | –
56 | O=Cc1ccc(O)c2ncccc12 | 0.355 µM [falling, partial curve, poor fit] | 0.631 µM [falling, full curve, poor fit]
57 | CC1Cc2ccccc2N1S(=O)(=O)c1cnc[nH]1 (configuration not stated) | 6.51 µM [rising, partial curve, poor fit] | –
58 | NC(=O)c1oc2ccccc2c1NC(=O)C1COc2ccccc2O1 (configuration not stated) | – | 0.126 µM [rising, full curve, poor fit]
59 | Cc1cc(N(C)Cc2ccccc2)nc2cc(O)ccc12 | 6.31 µM [rising, single point] | –
60 | CC(C)c1ccc(N2C(=O)CC(Sc3ncn[nH]3)C2=O)cc1 (configuration not stated) | 8.2 µM [falling, partial curve, poor fit] | –
61 | Cc1ccc(NC(=O)COC(=O)c2ccc(Cl)nc2)cc1S(=O)(=O)N1CCCCC1 | 8.2 µM [rising, partial curve, poor fit] | –
62 | Cn1c(=O)c(C(=O)NNC(=O)c2ccccc2Cl)c(O)c2ccccc21 | 4.47 µM [falling, full curve] | –
63 | O=C(CSc1nc2ccc(Cl)cc2[nH]1)c1cccs1 | 0.112 µM [rising, full curve, poor fit] | –
64 | COc1ccc(N(CC(=O)N2CCN(c3cccc(C)c3)C(C)C2)S(=O)(=O)c2c(C)n[nH]c2C)cc1 (configuration not stated) | 31.6 µM [falling, single point] | –
65 | N#C/C(=C\c1ccc(O)c(O)c1)C(=O)NCc1ccccc1 | 23.1 µM [falling, single point] | –
